Data reported in PubChem BioAssay AID1347075 (National Center for Advancing Translational Sciences (NCATS), 2019).
The campaign covered roughly 400,000 compounds. About 5,500 (1.4%) were called active. The shares of active, inactive and inconclusive entries below differ from those in the screen. Calls come from the whole dose curve; as a rule, active = well fitted cell-killing curve with a large enough effect; inconclusive = small, poorly fitted or top-dose-only effect, or effect the other way; inactive = flat fitted curve, though single readings scatter. Where the call is inconclusive, the potency comes from a doubtful curve fit.

assay: qHTS assay for MDR1-selective chemotherapeutics: Primary screen using the parental adenocarcinoma cell KB-3-1; conditions: KB-3-1 viability, CellTiter-Glo ATP luminescence, 72 h; series mostly up to 46.1 µM; note: nearly all actives have a fitted effect of over 60% in size
Method in brief: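 Multi-concentration cytotoxicity screen in KB-3-1 cells grown in DMEM lacking phenol red with 10% FBS. After 72 h at 37 °C with compound, ATP-dependent luminescence was recorded.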
Potency is the fitted concentration of half-maximal effect.

Structure (SMILES)	Potency
C[C@H](CO)N1C[C@H](C)[C@@H](CN(C)C(=O)Nc2ccc(C(F)(F)F)cc2)Oc2ccc(NC(=O)Nc3ccc(C(F)(F)F)cc3)cc2C1=O	inconclusive: 23.1 µM [cytotoxic, single point]
Oc1ccc(N=C/C=C/c2cccc(Br)c2)cc1-c1nc2ccccc2s1	inconclusive: 29.1 µM [cytotoxic, single point]
CCCCCCCNC(=O)C1(CC2CC(c3cccc(Br)c3)=NO2)CCN(C(=O)CCCCCBr)CC1 (stereo not drawn)	inconclusive: 16.4 µM [cytotoxic, partial curve, poor fit]
FC(F)(F)c1ccc(N2CCOCC2)c(Nc2nc3ccccc3n3cnnc23)c1	inconclusive: 16.4 µM [cytotoxic, single point]
Cc1ccc(-n2c(=O)c(C#N)cc3c(=O)n4ccccc4nc32)cc1C	inconclusive: 32.6 µM [cytotoxic, single point]
CC(Nc1nc(-c2ccc(F)cc2)cs1)c1nc2cc(Cl)c(Cl)cc2n1CCCO (stereo not drawn)	inconclusive: 20.6 µM [cytotoxic, single point]
Cc1nn(Cc2ccc(C(=O)Nc3ccccc3C(F)(F)F)o2)c(C)c1Br	inconclusive: 14.1 µM [cytotoxic, single point]
CCCC(=O)NC(c1ccc(C(C)C)cc1)c1ccc2cccnc2c1O (stereo not drawn)	active: 5.17 µM
COc1ccc(CN2CCC(N(CCc3ccccc3)Cc3ccccc3)CC2)c(OC)c1	inconclusive: 16.4 µM [cytotoxic, single point]
CCCn1cc(S(=O)(=O)c2ccccc2)c(=O)c2cc(F)c(N3CCCCCC3)cc21	inconclusive: 23.1 µM [cytotoxic, single point]
Cc1cc(C)cc(NC(=O)c2sc3nc4n(c(=O)c3c2C)N=C(c2ccc(F)cc2)CS4)c1	inactive
CC#CC(=O)N1CCC(CCC(=O)N(C)Cc2ccccc2)CC1	inconclusive: 18.4 µM [cytotoxic, single point]
COc1cc2c(NC3CCN(C)CC3)nc(N3CCCN(C)CC3)nc2cc1OCCCCCCN(C)C	inconclusive: 20.6 µM [cytotoxic, partial curve, poor fit]
CC[C@@H]1[C@H]2CCCC(=O)N3CC[C@@H](C[C@@H]1Nc1ccccc1)[C@@H]23	inconclusive: 29.1 µM [cytotoxic, single point]
COc1ccc(-c2nc(-c3ccc(NC(=O)c4ccncc4)cc3)no2)cc1OC	inconclusive: 14.6 µM [cytotoxic, partial curve]
Cc1ccccc1NC(=O)Cn1nnc(C(=O)NCc2cccs2)c1N	active: 3.26 µM
CNC(CC(C)C)C(=O)NC1C(=O)NC(CC(N)=O)C(=O)NC2C(=O)NC3C(=O)NC(C(=O)NC(C(=O)O)c4cc(O)cc(O)c4-c4cc3ccc4O)C(O)c3ccc(c(Cl)c3)Oc3cc2cc(c3OC2OC(CO)C(O)C(O)C2OC2CC(C)(N)C(O)C(C)O2)Oc2ccc(cc2Cl)C1O (stereo not drawn)	inactive
CCc1ccccc1Nc1nc2ccccc2[nH]1	inconclusive: 16.4 µM [cytotoxic, single point]
Cc1csc(NC(=O)c2ccc(Cn3nc(C)c(Br)c3C)o2)n1	inconclusive: 18.4 µM [cytotoxic, single point]

Sorted by length of the SMILES (rising): some entries from above
Structure (SMILES)	Potency
Cc1ccccc1NC(=O)Cn1nnc(C(=O)NCc2cccs2)c1N	active: 3.26 µM
CCCn1cc(S(=O)(=O)c2ccccc2)c(=O)c2cc(F)c(N3CCCCCC3)cc21	inconclusive: 23.1 µM [cytotoxic, single point]
COc1cc2c(NC3CCN(C)CC3)nc(N3CCCN(C)CC3)nc2cc1OCCCCCCN(C)C	inconclusive: 20.6 µM [cytotoxic, partial curve, poor fit]

Additional records.

Structure (SMILES)	Potency
COc1cc(-c2noc(C)c2C#CC2(O)CCCCC2)cc(OC)c1OC	inconclusive: 29.1 µM [cytotoxic, single point]
CC(C)C(=O)Nc1cccc(NC(=S)NC(=O)c2ccc(Cl)cc2)c1	inconclusive: 23.1 µM [cytotoxic, single point]
CCCCCn1c(=O)c(C(=O)c2ccccc2)nc2ccccc21	inconclusive: 16.4 µM [cytotoxic, partial curve, poor fit]
Clc1ccc2c(NCc3cccs3)ncnc2c1	inconclusive: 16.4 µM [cytotoxic, single point]
O=c1cc(N2CCCCC2)c(-c2ccccc2)nn1Cc1ccccc1Cl	inconclusive: 9.2 µM [cytotoxic, partial curve]
O=C(NCc1ccccc1C(F)(F)F)C1CCC(=O)N(CCCc2ccccc2)C1 (stereo not drawn)	inactive
Cc1nn(C)c(Oc2ccccc2)c1CCNS(=O)(=O)c1ccc(Cl)cc1	inconclusive: 29.1 µM [cytotoxic, single point]
COc1cc2nc(=S)n3[nH]c(CCn4nc(C)cc4C)nc3c2cc1OC	inconclusive: 3.26 µM [cytotoxic, partial curve, poor fit]
CCN1CCN(c2ccc(NC(=O)c3cccc(F)c3)cc2Cl)CC1	inconclusive: 18.4 µM [rising, partial curve, poor fit]
Clc1ccc(-n2ncc3c(NCC4CCCO4)ncnc32)cc1 (stereo not drawn)	active: 23.1 µM
CC1=C(C(=O)OC2CCCCC2)C(c2ccc(C)o2)C2=C(CCCC2=O)N1 (stereo not drawn)	inconclusive: 29.1 µM [cytotoxic, single point]
Cc1ccc2c(c1)COc1c3ccc(C(=O)N4CCCCC4)cc3nn1-2	inactive
Cc1ccc(OCC(=O)N/N=C\c2cn(C)c3ccccc23)c([N+](=O)[O-])c1	inconclusive: 29.1 µM [cytotoxic, single point]
CCOC(=O)C1CCCN(C(=O)Cn2ncc3c4ccccc4n(C)c3c2=O)C1 (stereo not drawn)	inactive
O=C(c1ccc2ccccc2n1)N1CCN(S(=O)(=O)c2ccc(Cl)cc2)CC1	inconclusive: 0.184 µM [cytotoxic, partial curve, poor fit]
COc1cccc(CN(C)CC(=O)N2CCN(S(=O)(=O)c3ccccc3)CC2)c1	inactive
CCC(Cc1ccccc1)NS(=O)(=O)c1ccc2c(c1)NC(=O)CS2 (stereo not drawn)	inconclusive: 18.4 µM [cytotoxic, partial curve, poor fit]
CC(C)C[C@H](NC(=O)c1[nH]cnc1C(=O)N[C@@H](C)C(=O)OC(C)(C)C)C(=O)OC(C)(C)C	inconclusive: 29.1 µM [cytotoxic, single point]
CCOC(=O)[C@]12CCCC=C1N(CCC1=CCCCC1)C(=O)[C@H](CC(=O)NCC1CCCCC1)C2	active: 16.4 µM
